From patent US20230285442A1, “USE OF OLIGOCHITOSANS AND DERIVATIVES THEREOF FOR NEUTRALIZING VIRAL AGENTS” (priority 2020, published 2023)
Some of these results come from one statement about several compounds together.

Test system: HIV-89.6
Assay: HIV binding in culture supernatant, total HIV RNA in supernatant
Settings: 1 mg compound, 35 pg HIV-89.6, 100 μl; for reduction in levels of HIV RNA in the supernatant: 30 min, centrifuged; for binding to the virus: in some cases no binding at all
Protocol: The desired compound in PBS or DMSO was incubated with virus for 30 min and then centrifuged. Total RNA isolated from supernatant was quantified. The assay was done in triplicate.
Medium/blood samples. To ensure uniformity and reproducibility, standards with known viral copy numbers of HIV89.6 (NIH NIAID repository) were prepared. A known amount of virus was spiked into cell culture medium in ten-fold serial dilutions. HIV-1 RNA was extracted using the High Pure viral RNA kit (Ambion). Complementary DNA (cDNA) was synthesized with the SuperScript III cDNA Synthesis Kit (Invitrogen) and amplified and quantified using primers specific for HIV-1 LTR. Real-time PCR amplification was performed in a CFX96™ Real-Time system (Bio-Rad, Hercules, CA). […]; position 506 of HxB2); […]; position 626 of HxB2). See Mehta, N et. al, PLoS One. 2009 Jun. 5; 4(6):e5819, which is incorporated herein by reference in its entirety. HIV-1 specific amplicons were detected using SYBR Green (Bio-Rad). The number of HIV-1 RNA copies in each test template was measured by its threshold cycle (Ct) as determined from the curve of serially diluted standards using data analysis software (Bio-Rad CFX Manager). The threshold cycle values were plotted against copy numbers to construct the standard curve. Quantification of HIV-1 RNA in each test sample was back calculated and viral load was expressed as copies/ml. At the end of the assay, the specificity of each amplified product was ascertained by means of melting curve analysis. This eliminated false-positive detections due to primer-dimers or nonspecific amplicons.
Quantitative real time PCR was performed using BioRad CFX 96 with the known amounts of HIV-1 RNA as standards. The starting quantity of HIV-1 RNA in the samples treated with different compounds was determined using the standard curve and is plotted on the graph.
To identify the compounds that bind HIV, the HIV containing supernatant from HIV-infected cells was incubated with the desired compound and neutralization of HIV (1 milligram of the compound and 35 pg (picograms) of HIV-89.6 was determined by analysis of the total HIV RNA in culture supernatant. Thus, the binding of polysaccharide compounds with HIV is examined in culture supernatants. The control (IM AA con) used is equal amount of IM acetic acid in a total volume of 100 μl with phosphate buffered saline (PBS). 10 mg/ml stock solution of NCD1 is prepared in water. The stock solution is diluted in PBS such that 1 mg of NCD1 is taken in 100 μl volume. Test compounds (NCD3, NCD4, NCD5, NCD6, NCD7, NCD8, NCD9) added at 1 mg of the compound and resuspended using 10% DMSO in PBS so that the total volume is 100 μ1. […] Similarly, 10% DMSO control contained equal amount of DMSO without any compound being added.

Row | Substance | reduction in levels of HIV RNA in the supernatant | binding to the virus
1 | N3-phthuloyl NCD1 [NCD14] | more than 90% | –
2 | N-Phthaloyl NCD1 [NCD10] | – | less than 20%
3 | Nitric NCD1 [NCD17] | more than 90% | –
4 | Oligochitosan 10 kDa [NCD1] | more than 90% | –
5 | Oxidated diamino Starch [NCD8] | – | less than 20%
6 | Propargyl NCD1 [NCD13] | – | less than 20%
7 | Starch azure [NCD9] | – | less than 20%
8 | Sulfated NCD1 [NCD7] | – | less than 20%
9 | carboxylated NCD1 [NCD3] | – | less than 20%
10 | ester mannosylated NCD1 [NCD4] | – | less than 20%
